No constants are given. Whether binding was seen depends on the method and setting. For part of these data: In cells and extracts the contact can be indirect. Some binding calls cover weakened binding; strength is not graded here.
Assays:
[1] = molecular target: human DNAJB9-HA (DNAJB9-3HA) (human) (UniProt Q9UBS3); assay: co-IP; HEK293 lines stably expressing FLAG-WT- or FLAG-ΔF508-CFTR, transiently transfected with DNAJB9-3HA, 48 h; lysis in IP buffer; anti-FLAG resin or anti-HA resin; western blotting with anti-CFTR and anti-HA
[2] = molecular target: DNAJB2 (on the ProtoArray) (UniProt P25686); assay: peptide or protein array; ProtoArray protein microarray (Invitrogen / ThermoFisher) probed with purified full length FLAG-CFTR in solution; bound CFTR detected with mouse anti-FLAG monoclonal antibody and Alexa-488 secondary antibody, fluorescence scanner; mean of duplicate; both purified
[3] = molecular target: DNAJB6 (on the ProtoArray) (UniProt O75190); assay: as above
[4] = molecular target: DNAJB9 (on the ProtoArray) (UniProt Q9UBS3); assay: as above
[5] = molecular target: DNAJB11/ERjd3 (on the ProtoArray) (UniProt Q9UBS4); assay: as above

The chains behind the UniProt entries cited, without tags or fusion partners. Where a name states a change or a piece, a line headed by the entry shows the natural chain unless it says otherwise. A line that says so, or that is headed by a name, gives the form on record, which may keep a tag or linker. Residues count along the entry.
UniProt Q9UBS3, residues 24-223: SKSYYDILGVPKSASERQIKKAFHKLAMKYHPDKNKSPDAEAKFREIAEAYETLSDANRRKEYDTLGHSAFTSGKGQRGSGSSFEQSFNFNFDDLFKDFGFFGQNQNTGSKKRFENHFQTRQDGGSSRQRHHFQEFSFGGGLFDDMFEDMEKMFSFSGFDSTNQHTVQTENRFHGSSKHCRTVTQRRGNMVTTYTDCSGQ
UniProt P25686: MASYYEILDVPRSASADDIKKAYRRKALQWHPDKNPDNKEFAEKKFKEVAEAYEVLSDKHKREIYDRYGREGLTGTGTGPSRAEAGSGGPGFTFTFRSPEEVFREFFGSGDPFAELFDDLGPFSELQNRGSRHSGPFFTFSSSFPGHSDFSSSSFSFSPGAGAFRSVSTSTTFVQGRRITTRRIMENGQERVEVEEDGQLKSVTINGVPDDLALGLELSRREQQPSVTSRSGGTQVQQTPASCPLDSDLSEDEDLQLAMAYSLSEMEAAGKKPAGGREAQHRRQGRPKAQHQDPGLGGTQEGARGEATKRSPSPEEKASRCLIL
UniProt O75190: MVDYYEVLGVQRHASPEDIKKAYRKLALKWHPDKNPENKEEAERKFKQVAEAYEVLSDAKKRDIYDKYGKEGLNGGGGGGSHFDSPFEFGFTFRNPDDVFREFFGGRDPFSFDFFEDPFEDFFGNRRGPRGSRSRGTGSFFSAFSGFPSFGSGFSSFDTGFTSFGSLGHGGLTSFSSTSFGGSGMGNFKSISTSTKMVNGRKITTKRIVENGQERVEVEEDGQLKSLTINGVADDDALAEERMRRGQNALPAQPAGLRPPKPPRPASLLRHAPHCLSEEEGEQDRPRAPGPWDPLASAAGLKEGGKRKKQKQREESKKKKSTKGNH
UniProt Q9UBS4, residues 23-358: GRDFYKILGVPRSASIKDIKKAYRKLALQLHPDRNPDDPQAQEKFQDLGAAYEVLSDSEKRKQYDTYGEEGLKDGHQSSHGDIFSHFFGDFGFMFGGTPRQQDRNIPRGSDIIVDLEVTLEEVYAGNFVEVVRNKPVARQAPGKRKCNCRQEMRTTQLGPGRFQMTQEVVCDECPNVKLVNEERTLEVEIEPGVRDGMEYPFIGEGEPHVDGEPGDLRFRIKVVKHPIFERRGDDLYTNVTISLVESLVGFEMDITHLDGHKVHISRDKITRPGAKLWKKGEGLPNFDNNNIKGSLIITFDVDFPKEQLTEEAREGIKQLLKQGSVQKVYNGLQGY
UniProt P13569: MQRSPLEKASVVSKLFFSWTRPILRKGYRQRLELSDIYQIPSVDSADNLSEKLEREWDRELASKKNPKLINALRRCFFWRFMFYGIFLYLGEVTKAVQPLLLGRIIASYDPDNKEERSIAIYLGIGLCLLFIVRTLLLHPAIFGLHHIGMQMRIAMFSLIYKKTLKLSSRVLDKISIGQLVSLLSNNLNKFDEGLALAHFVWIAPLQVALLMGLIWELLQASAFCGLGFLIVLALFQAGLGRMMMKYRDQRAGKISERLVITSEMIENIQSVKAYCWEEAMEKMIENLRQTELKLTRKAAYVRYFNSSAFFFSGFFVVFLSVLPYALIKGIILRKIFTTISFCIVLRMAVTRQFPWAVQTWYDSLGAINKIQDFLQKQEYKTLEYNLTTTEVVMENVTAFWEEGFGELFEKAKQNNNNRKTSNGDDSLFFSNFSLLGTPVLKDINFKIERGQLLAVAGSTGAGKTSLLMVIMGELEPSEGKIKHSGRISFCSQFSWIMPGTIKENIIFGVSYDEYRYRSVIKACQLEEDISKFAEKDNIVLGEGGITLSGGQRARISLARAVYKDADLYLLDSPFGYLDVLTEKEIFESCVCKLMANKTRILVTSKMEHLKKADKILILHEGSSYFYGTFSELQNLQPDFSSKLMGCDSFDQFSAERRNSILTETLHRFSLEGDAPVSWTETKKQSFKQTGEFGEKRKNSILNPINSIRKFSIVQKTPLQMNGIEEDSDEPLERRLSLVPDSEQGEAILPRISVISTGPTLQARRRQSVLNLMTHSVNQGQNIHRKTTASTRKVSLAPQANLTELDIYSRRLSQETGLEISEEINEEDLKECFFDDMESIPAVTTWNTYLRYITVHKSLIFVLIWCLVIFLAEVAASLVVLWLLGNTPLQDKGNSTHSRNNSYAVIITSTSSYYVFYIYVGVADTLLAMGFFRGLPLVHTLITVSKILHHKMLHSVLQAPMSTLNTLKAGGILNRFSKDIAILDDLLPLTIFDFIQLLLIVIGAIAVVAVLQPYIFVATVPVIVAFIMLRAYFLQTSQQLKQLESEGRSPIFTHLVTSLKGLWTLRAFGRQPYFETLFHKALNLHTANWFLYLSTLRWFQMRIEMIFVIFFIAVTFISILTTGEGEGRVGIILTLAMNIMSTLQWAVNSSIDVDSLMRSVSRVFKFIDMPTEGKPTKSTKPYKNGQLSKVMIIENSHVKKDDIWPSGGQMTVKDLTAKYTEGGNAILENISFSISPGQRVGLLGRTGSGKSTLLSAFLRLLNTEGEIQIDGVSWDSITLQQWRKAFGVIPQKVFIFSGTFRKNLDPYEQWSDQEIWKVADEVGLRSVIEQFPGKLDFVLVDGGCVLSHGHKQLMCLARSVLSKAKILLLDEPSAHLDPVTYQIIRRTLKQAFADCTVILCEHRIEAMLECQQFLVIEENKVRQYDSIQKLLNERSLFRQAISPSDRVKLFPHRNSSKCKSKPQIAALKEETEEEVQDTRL
FLAG-ΔF508-CFTR (P13569, form named): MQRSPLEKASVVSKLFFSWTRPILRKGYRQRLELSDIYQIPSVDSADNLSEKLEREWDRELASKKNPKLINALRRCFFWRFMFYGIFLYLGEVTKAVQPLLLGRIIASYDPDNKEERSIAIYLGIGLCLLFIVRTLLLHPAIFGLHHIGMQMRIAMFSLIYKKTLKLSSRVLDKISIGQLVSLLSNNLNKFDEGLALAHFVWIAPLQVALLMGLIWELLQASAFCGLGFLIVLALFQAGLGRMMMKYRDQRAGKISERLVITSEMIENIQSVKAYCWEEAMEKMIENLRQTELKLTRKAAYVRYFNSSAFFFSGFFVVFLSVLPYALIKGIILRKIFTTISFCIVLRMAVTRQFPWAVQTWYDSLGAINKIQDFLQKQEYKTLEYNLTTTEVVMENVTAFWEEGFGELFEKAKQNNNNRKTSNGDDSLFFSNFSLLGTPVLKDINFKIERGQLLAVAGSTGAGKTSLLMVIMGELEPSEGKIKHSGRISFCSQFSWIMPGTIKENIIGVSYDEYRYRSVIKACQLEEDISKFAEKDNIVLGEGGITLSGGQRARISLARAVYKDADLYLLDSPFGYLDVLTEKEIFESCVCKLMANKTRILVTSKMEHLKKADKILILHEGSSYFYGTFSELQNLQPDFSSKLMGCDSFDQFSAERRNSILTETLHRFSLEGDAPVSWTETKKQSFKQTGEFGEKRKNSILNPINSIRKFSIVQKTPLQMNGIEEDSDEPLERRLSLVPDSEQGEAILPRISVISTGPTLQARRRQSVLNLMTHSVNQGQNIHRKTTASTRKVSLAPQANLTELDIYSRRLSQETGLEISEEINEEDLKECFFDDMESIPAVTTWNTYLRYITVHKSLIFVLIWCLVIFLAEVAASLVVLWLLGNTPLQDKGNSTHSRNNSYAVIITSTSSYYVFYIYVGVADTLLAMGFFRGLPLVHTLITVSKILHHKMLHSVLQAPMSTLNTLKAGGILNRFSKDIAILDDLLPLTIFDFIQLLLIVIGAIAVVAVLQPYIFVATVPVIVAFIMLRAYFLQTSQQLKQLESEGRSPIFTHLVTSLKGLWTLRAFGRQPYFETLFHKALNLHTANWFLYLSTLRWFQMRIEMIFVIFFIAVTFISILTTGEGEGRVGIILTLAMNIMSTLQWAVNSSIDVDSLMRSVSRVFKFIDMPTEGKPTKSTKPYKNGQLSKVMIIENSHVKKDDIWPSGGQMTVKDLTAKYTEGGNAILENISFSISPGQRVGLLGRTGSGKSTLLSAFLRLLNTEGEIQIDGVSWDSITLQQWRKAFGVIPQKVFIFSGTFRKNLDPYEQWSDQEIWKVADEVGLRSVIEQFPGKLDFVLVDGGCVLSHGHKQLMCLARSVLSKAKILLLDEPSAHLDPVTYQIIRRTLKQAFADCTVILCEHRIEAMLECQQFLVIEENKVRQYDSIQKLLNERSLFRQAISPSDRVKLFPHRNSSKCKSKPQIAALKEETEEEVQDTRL

Measured: binding

full length FLAG-CFTR (WT-CFTR) (from UniProt P13569 1-1480)
binds: all assays above

FLAG-ΔF508-CFTR (from UniProt P13569 1-1480)
binds: [1]

— article PMC6614449
